Measured values: PMC3368247 (Frontiers in Pharmacology, 2012)
pIC50: −log10 of the molar value.

Target: T1, Cx50 GJ channels (Mus musculus, UniProt P28236)
T1 sequence (P28236 1-440): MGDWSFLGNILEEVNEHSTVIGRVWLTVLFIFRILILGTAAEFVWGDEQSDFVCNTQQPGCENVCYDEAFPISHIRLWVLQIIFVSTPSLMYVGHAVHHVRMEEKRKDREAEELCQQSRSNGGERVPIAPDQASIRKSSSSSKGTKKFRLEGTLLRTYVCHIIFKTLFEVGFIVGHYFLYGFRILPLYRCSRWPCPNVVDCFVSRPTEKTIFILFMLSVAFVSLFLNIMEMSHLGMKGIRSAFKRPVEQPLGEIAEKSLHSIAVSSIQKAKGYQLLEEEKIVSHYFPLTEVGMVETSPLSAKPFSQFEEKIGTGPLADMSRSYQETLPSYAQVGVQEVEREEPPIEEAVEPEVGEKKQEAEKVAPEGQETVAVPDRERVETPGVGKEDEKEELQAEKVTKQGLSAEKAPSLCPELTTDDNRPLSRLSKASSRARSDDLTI
Format: cell-based

pIC50: 5.30
Compound: Clc1ccccc1C(c1ccccc1)(c1ccccc1)n1ccnc1 [Clotrimazole, reference compound]
